The values below are quoted from earlier work in US20110300232A1, “EFFECTS OF NITRIC OXIDE (NO) AND iNOS ON EXPRESSION AND SIGNAL TRANSDUCTION IN CANCER AND ITS USE IN DRUG DISCOVERY AND CANCER THERAPY DESIGN” (priority 2010, published 2011).

The conditions of the series: fraction of the NO concentration generated by DEA/NO.

With `NCCN(CCN)/[N+]([O-])=N/O` [DETA/NO], the “NO concentration generated relative to DEA/NO” value is recorded as “one-third”.
On to `NCCCNCCCCN(CCCN)/[N+]([O-])=N/O` [Sper/NO], for which the “NO concentration generated relative to DEA/NO” value is “one-third”.
